This is one part of the list. Shown are side measurements of this screen, not its main read-out; they come without a call. Compounds called inactive in the main read-out are mostly missing here. The note in brackets gives the kind of curve behind each potency; many fits are weak.
Assay: IkB Signaling
Settings: ABC-DLBCL IkBa-CBG/CBR dual luciferase ratio (green luciferase fused to IkBa over red control in OCI-Ly3 lymphoma cells), 4 h
Summary of the method: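 Curves were fitted separately to fusion (green), unfused (red) and ratio luminescence, then classed by r2, magnitude and activity. Cells: OCI-Ly3, 4 h compound plus doxycycline at 37C; 10 uM MG-132 defined full response.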

[1] = measured here: control luc red channel unless noted
[2] = measured here: IkB-luc green channel
[3] = measured here: control luc red channel

## CCc1ccc(NC(=O)CCn2nc(-c3ccccc3OC)c3c(C)cc(C)nc32)cc1
[1]
  AC50: 12.6 µM [falling, partial curve]

## COc1ccc(-c2cn3c(C)c(C(=O)Nc4cc(NC(C)=O)ccc4OC)sc3n2)cc1
[1]
  AC50: 1.58 µM [falling, full curve]

## CCC(c1nnnn1Cc1ccco1)N(Cc1ccccc1OC)Cc1cc2cc(C)ccc2[nH]c1=O (stereo unspecified)
[1]
  AC50: 15.8 µM [falling, partial curve]

## COC(=O)c1scc(-c2ccc(C)cc2)c1S(=O)(=O)N1CCN(c2cccc(OC)c2)CC1
[1]
  AC50: 3.98 µM [falling, full curve, poor fit]

## Fc1ccc(Nc2c3c(nc4ccccc24)CCC3)cc1
[1]
  AC50: 25.1 µM [falling, single point]

## Cc1ccc(Sc2c(C)nn(C(C)(C)C)c2OC(=O)C(C)(C)C)cc1
[1]
  AC50: 20 µM [falling, partial curve]

## O=C(NCc1ccco1)c1ccc2c(c1)N(Cc1ccc(Cl)cc1)C(=O)c1ccccc1S2=O (stereo unspecified)
[1]
  AC50: 3.98 µM [falling, partial curve]

## CCN(C(=O)C1CCCN(S(=O)(=O)c2c(C)noc2/C=C/N(C)C)C1)c1cccc(C)c1 (stereo unspecified)
[1]
  AC50: 31.6 µM [falling, single point]

## CCN(c1ccccc1)c1nnc(NC(=O)Nc2ccccc2F)s1
[1]
  AC50: 15.8 µM [falling, partial curve]

## O=C1CC(c2ccc3c(c2)OCO3)Sc2nc3ccccc3n21 (stereo unspecified)
[1]
  AC50: 0.2 µM [falling, full curve]

## Cc1nc(Oc2ccc(F)cc2Cl)c2oc3ccccc3c2n1
[1]
  AC50: 39.8 µM [falling, single point]

## O=C(CN1C(=O)COc2ccccc21)Nc1ccc(F)cc1
[1]
  AC50: 0.02 µM [falling, full curve]

## CCC(=O)N1CCc2cc(Br)cc(S(=O)(=O)CCC(=O)NCc3ccc(Cl)cc3)c21
[1]
  AC50: 20 µM [falling, partial curve]

## CC1(C)CC(NC(=O)CC2CCCCC2)CC(C)(C)N1
[1]
  AC50: 7.94 µM [falling, partial curve]

## CCOc1ccccc1NC(=O)CN(C)S(=O)(=O)c1ccc2nc(C)sc2c1
[1]
  AC50: 39.8 µM [falling, single point]

## CSC1=NC2(CCN(C(=O)NC3CCCCC3)CC2)N=C1c1ccc(C)c(C)c1
[1]
  AC50: 15.8 µM [falling, partial curve]

## Cc1ccc(C)c(NC(=O)CN2C(=O)C(C)(C)c3ccccc32)c1
[1]
  AC50: 7.94 µM [rising, partial curve, poor fit]

## COc1ccc(Br)cc1CNC(=O)c1cc2n(n1)CCCN(Cc1ccc(C)cc1)C2=O
[1]
  AC50: 12.6 µM [falling, partial curve]

## CCOC(=O)CCc1c(C)nc2cc(-c3ccccc3OC)[nH]n2c1=O
[1]
  AC50: 3.16 µM [falling, full curve]

## O=C(Nc1sc2c(c1C(=O)NCc1ccco1)CCCC2)c1cc(=O)c2ccccc2o1
[2]
  AC50: 39.8 µM [rising, single point]
[3]
  AC50: 5.01 µM [falling, partial curve]

## COc1cc(NC(=O)Cn2c(=O)n(Cc3ccco3)c(=O)c3sc4ccccc4c32)cc(OC)c1
[1]
  AC50: 31.6 µM [falling, partial curve]

## COCCCNc1oc(/C=C/c2cc(OC)c(OC)c(OC)c2)nc1C#N
[1]
  AC50: 25.1 µM [falling, single point]

## Cc1ccc(N2CCN(C(=O)c3c(C)oc4ncn(CC(C)C)c(=O)c34)CC2)c(C)c1
[1]
  AC50: 25.1 µM [falling, partial curve, poor fit]

## Cc1ccc(C)c(N2CCN(C(=O)C3CCN(c4nc5ccc(C)cc5[nH]4)CC3)CC2)c1
[1]
  AC50: 39.8 µM [falling, single point]

## CCC(C)NC(=O)c1cc(-c2cccc(OC)c2)on1 (stereo unspecified)
[1]
  AC50: 3.16 µM [falling, full curve]

## Cc1cc(-c2ccc(C)c(S(=O)(=O)N3CCN(c4cccc(C(F)(F)F)c4)CC3)c2)on1
[1]
  AC50: 2.51 µM [falling, full curve, poor fit]

## Cc1ccc(Oc2c(C(F)(F)F)oc3c(CN4CCC(C)CC4)c(O)ccc3c2=O)cc1
[1]
  AC50: 15.8 µM [falling, partial curve]

## CCOc1ccc(C(=O)CCN2CCCCCC2)cc1
[2]
  AC50: 25.1 µM [falling, single point]
[3]
  AC50: 7.94 µM [falling, full curve]

## Cc1ccc(S(=O)(=O)Nc2cc3c(cc2NCc2ccccc2)n(C)c(=O)n3C)c(C)c1
[1]
  AC50: 31.6 µM [falling, single point]

## O=C(CCC1N=C2c3ccccc3N=C(SCc3ccc(F)cc3)N2C1=O)NCc1ccc(F)cc1 (stereo unspecified)
[1]
  AC50: 7.94 µM [falling, partial curve]

## COc1ccc(-c2cc3nc(C)c(CCC(=O)Nc4ccccc4C(C)=O)c(C)n3n2)c(OC)c1
[1]
  AC50: 0.0501 µM [falling, full curve]

## Cc1cccc(Cn2c(SCc3ccc(C(=O)NCCc4ccccc4)cc3)nc3ccncc32)c1
[1]
  AC50: 7.94 µM [falling, partial curve]

## CCc1cccc(C)c1NC(=O)Cn1ccn(-c2cccc(OC)c2)c(=O)c1=O
[1]
  AC50: 31.6 µM [falling, single point]

## O=C(CSCc1cccc(F)c1)NCc1ccccc1
[1]
  AC50: 0.0794 µM [rising, full curve]

## CCCC1=Nc2cc(C(=O)NCc3ccc(OC)cc3)ccc2Sc2ccc(C)cc21
[1]
  AC50: 7.94 µM [falling, partial curve]

## Cc1ccc(S(=O)(=O)Nc2ccccc2C(=O)c2ccc(C)c(C)c2)cc1
[1]
  AC50: 3.16 µM [falling, partial curve]

## CCOc1ccc(-c2nc(CSCC(=O)N3CCN(c4ccc(F)cc4)CC3)c(C)o2)cc1
[1]
  AC50: 39.8 µM [falling, single point]

## O=C1NC(Nc2nc3ccccc3s2)(C(F)(F)F)C(=O)N1C1CCCCC1 (stereo unspecified)
[1]
  AC50: 7.94 µM [falling, partial curve]

## CCOc1ccc(C(=O)Nc2ccc3nc(SCCOc4ccccc4)sc3c2)cc1
[1]
  AC50: 0.1 µM [falling, full curve]

From PubChem BioAssay AID445 (National Center for Advancing Translational Sciences (NCATS), 2006)
